From publication PMC10082759, “Shieldin complex assembly kinetics and DNA binding by SHLD3” (Communications Biology, 2022)
These are yes or no findings as the source states them, for the method shown. Some binding calls cover weakened binding; strength is not graded here.

Amino acid sequences for entries named in this document (tags omitted). A change or cut given only in a name is not applied to a line headed by its entry.
UniProt Q9UI95: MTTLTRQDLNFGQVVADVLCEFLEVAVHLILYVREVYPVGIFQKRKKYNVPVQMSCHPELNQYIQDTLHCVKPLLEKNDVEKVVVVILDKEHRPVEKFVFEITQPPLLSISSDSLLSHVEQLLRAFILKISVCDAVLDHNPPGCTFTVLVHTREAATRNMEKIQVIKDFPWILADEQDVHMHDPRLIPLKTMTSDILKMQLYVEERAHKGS

Key:
[1] = biological target: T1, full-length SHLD3 (human) (UniProt Q6ZNX1); assay: co-purification; co-expressed in Hi5 insect cells with GST fused to SHLD2; purified as a complex, tag cleaved with PreScission, cation exchange (Resource-S) and SEC
T1 sequence: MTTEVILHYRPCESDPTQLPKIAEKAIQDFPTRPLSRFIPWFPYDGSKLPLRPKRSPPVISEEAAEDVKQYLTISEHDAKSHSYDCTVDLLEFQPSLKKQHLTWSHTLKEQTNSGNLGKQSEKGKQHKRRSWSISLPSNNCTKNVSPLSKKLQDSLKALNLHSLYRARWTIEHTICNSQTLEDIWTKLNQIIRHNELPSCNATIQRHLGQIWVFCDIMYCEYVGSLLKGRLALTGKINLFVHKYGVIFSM

[2] = biological target: REV7^R124A (human) (UniProt Q9UI95); assay: SEC; REV7 dimerization: 20 µM REV7 or MBP-REV7 constructs on Superdex-200 3.2/300 in buffer B; both purified

binding [1]	binding [2]	Substance
binds	–	REV7 (of the insect-cell Shieldin complex) (from UniProt Q9UI95 1-211)
–	no binding (tested: 20 µM)	REV7^R124A (from UniProt Q9UI95 1-211)
binds	–	REV7^R124A (of the insect-cell Shieldin complex) (from UniProt Q9UI95 1-211)
